{"source": "PubChem BioAssay AID1671195 | Yale University | 2021", "screen": "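Genes whose knockdown alters LDL uptake in liver cancer cells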 (primary screen)", "cell system": "human Huh7 hepatoma cells", "reagents": "siRNA pool against human genes, 18 nM", "time to read-out": "about 2 to 2.5 days of knockdown, then 8 h LDL uptake", "conditions": "DiI-labelled LDL at 30 µg/ml for 8 h, in lipoprotein-deficient serum medium", "measurement": "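Fluorescent LDL signal imaged in cells, scaled to the plate median, robust z-score for each replicate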", "reading the numbers": "robust z-score: higher = more LDL uptake after knockdown", "call rule": "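Active when two or more replicates show a robust z-score above 2 or below -2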", "note": "The deposit covers about 22,000 reagents; this is a random part of them. About 1,510 of all reagents (6.9%) count as active. 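Active includes knockdowns raising or lowering LDL uptake; positive z-scores mean more uptake, negative mean less.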 Reagent sequences are not shown."}
The first 2 records, ahead of the listing:
{"gene": "MSRB1 (GeneID 51734)", "PubChem SID": "SID442903542", "robust z-score, replicate 1": -1.06, "robust z-score, replicate 2": -1.78, "robust z-score, replicate 3": -1.13, "Call": "inactive"}
{"gene": "ZFP1 (GeneID 162239)", "PubChem SID": "SID442891452", "robust z-score, replicate 1": 0.247, "robust z-score, replicate 2": 0.544, "robust z-score, replicate 3": 0.0637, "Call": "inactive"}

The listing, from the first entry:
{"gene": "MSRB1 (GeneID 51734)", "PubChem SID": "SID442903542", "robust z-score, replicate 1": -1.06, "robust z-score, replicate 2": -1.78, "robust z-score, replicate 3": -1.13, "Call": "inactive"}
{"gene": "ZFP1 (GeneID 162239)", "PubChem SID": "SID442891452", "robust z-score, replicate 1": 0.247, "robust z-score, replicate 2": 0.544, "robust z-score, replicate 3": 0.0637, "Call": "inactive"}
{"gene": "KCNJ2-AS1 (GeneID 400617)", "PubChem SID": "SID442887008", "robust z-score, replicate 1": 0.712, "robust z-score, replicate 2": 0.87, "robust z-score, replicate 3": 1.44, "Call": "inactive"}
{"gene": "TOMM40L (GeneID 84134)", "PubChem SID": "SID442903239", "robust z-score, replicate 1": -1.24, "robust z-score, replicate 2": -1.19, "robust z-score, replicate 3": -1.32, "Call": "inactive"}
{"gene": "ZNF304 (GeneID 57343)", "PubChem SID": "SID442902128", "robust z-score, replicate 1": -0.965, "robust z-score, replicate 2": -1.14, "robust z-score, replicate 3": -0.946, "Call": "inactive"}
{"gene": "PDS5A (GeneID 23244)", "PubChem SID": "SID442886067", "robust z-score, replicate 1": 2.73, "robust z-score, replicate 2": -0.37, "robust z-score, replicate 3": 1.48, "Call": "inactive"}
{"gene": "BLTP2 (GeneID 9703)", "PubChem SID": "SID442897145", "robust z-score, replicate 1": 0.684, "robust z-score, replicate 2": -0.405, "robust z-score, replicate 3": -1.34, "Call": "inactive"}
{"gene": "PAICS (GeneID 10606)", "PubChem SID": "SID442888789", "robust z-score, replicate 1": 1.13, "robust z-score, replicate 2": 0.121, "robust z-score, replicate 3": 0.732, "Call": "inactive"}
{"gene": "RFTN2 (GeneID 130132)", "PubChem SID": "SID442884514", "robust z-score, replicate 1": -1.92, "robust z-score, replicate 2": -2.83, "robust z-score, replicate 3": -2.1, "Call": "active"}
{"gene": "ADAMTS17 (GeneID 170691)", "PubChem SID": "SID442889382", "robust z-score, replicate 1": 0.608, "robust z-score, replicate 2": 0.552, "robust z-score, replicate 3": 0.545, "Call": "inactive"}
{"gene": "DCAKD (GeneID 79877)", "PubChem SID": "SID442903194", "robust z-score, replicate 1": -1.12, "robust z-score, replicate 2": -1.4, "robust z-score, replicate 3": -1.2, "Call": "inactive"}
{"gene": "CNPY2 (GeneID 10330)", "PubChem SID": "SID442887804", "robust z-score, replicate 1": 2.28, "robust z-score, replicate 2": 0.897, "robust z-score, replicate 3": -0.662, "Call": "inactive"}
{"gene": "MAGED1 (GeneID 9500)", "PubChem SID": "SID442886669", "robust z-score, replicate 1": 1.11, "robust z-score, replicate 2": 1.77, "robust z-score, replicate 3": 0.402, "Call": "inactive"}
{"gene": "FAAH (GeneID 2166)", "PubChem SID": "SID442895603", "robust z-score, replicate 1": 0.515, "robust z-score, replicate 2": -0.147, "robust z-score, replicate 3": -0.925, "Call": "inactive"}
{"gene": "PROKR2 (GeneID 128674)", "PubChem SID": "SID442888865", "robust z-score, replicate 1": 1.3, "robust z-score, replicate 2": 0.418, "robust z-score, replicate 3": 0.226, "Call": "inactive"}
{"gene": "GPN3 (GeneID 51184)", "PubChem SID": "SID442886094", "robust z-score, replicate 1": 0.785, "robust z-score, replicate 2": 1.7, "robust z-score, replicate 3": 1.33, "Call": "inactive"}
